Here are results for two molecules from paper PMC8910673.

Results are given in words; binding and its absence hold for the method and conditions named. In cells and extracts the contact can be indirect. Some entries that bind do so weakly or less than the wild type. Tags and fused reporters may be left off the sequences shown.

The target of assay [1] is T1, GFP-MAP3Kε2 (Arabidopsis thaliana) (UniProt Q9SFB6).
T1 sequence: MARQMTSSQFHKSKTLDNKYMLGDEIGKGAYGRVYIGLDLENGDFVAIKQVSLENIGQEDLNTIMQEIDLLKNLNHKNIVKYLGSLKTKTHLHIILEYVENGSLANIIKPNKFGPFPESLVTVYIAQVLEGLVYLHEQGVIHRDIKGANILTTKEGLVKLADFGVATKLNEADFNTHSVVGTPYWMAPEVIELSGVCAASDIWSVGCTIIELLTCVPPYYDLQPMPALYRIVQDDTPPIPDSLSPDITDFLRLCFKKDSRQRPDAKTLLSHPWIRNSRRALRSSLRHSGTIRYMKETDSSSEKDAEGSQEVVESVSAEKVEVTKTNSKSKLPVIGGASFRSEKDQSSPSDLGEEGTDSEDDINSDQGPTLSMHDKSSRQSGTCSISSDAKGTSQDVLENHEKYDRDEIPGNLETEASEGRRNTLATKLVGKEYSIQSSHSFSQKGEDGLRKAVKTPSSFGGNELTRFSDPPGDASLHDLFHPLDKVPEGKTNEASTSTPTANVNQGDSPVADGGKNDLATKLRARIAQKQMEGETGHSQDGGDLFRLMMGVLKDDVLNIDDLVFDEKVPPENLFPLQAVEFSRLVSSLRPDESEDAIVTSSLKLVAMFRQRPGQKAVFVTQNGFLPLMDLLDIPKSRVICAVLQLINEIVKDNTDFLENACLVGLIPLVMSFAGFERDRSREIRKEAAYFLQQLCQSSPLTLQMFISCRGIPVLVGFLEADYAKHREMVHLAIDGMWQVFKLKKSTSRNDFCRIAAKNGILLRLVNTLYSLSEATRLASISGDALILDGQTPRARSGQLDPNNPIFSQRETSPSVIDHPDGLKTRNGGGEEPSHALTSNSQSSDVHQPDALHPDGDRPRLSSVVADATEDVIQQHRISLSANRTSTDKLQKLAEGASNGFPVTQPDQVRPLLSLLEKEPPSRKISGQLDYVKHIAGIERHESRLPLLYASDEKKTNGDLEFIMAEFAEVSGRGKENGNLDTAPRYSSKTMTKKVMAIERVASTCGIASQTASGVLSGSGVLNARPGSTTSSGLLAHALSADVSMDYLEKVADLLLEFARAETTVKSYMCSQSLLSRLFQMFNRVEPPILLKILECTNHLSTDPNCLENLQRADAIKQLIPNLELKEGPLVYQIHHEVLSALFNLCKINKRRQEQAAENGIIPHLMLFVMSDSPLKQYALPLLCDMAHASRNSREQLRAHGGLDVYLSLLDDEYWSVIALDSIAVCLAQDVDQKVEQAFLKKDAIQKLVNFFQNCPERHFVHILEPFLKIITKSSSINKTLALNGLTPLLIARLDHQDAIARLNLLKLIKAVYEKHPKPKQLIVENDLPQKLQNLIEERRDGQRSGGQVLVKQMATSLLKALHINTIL
In words: co-IP; total protein extracts of co-transfected N. benthamiana leaves; anti-GFP agarose beads, 4 °C, 2 h; IP buffer 50 mM HEPES pH 7.4, 50 mM NaCl, 0.1% Triton X-100; blots with anti-GFP and anti-mcherry.

For assay [2], the target named is T2, GFP-MAP3Kε1 (Arabidopsis thaliana) (UniProt Q9LJD8).
T2 sequence: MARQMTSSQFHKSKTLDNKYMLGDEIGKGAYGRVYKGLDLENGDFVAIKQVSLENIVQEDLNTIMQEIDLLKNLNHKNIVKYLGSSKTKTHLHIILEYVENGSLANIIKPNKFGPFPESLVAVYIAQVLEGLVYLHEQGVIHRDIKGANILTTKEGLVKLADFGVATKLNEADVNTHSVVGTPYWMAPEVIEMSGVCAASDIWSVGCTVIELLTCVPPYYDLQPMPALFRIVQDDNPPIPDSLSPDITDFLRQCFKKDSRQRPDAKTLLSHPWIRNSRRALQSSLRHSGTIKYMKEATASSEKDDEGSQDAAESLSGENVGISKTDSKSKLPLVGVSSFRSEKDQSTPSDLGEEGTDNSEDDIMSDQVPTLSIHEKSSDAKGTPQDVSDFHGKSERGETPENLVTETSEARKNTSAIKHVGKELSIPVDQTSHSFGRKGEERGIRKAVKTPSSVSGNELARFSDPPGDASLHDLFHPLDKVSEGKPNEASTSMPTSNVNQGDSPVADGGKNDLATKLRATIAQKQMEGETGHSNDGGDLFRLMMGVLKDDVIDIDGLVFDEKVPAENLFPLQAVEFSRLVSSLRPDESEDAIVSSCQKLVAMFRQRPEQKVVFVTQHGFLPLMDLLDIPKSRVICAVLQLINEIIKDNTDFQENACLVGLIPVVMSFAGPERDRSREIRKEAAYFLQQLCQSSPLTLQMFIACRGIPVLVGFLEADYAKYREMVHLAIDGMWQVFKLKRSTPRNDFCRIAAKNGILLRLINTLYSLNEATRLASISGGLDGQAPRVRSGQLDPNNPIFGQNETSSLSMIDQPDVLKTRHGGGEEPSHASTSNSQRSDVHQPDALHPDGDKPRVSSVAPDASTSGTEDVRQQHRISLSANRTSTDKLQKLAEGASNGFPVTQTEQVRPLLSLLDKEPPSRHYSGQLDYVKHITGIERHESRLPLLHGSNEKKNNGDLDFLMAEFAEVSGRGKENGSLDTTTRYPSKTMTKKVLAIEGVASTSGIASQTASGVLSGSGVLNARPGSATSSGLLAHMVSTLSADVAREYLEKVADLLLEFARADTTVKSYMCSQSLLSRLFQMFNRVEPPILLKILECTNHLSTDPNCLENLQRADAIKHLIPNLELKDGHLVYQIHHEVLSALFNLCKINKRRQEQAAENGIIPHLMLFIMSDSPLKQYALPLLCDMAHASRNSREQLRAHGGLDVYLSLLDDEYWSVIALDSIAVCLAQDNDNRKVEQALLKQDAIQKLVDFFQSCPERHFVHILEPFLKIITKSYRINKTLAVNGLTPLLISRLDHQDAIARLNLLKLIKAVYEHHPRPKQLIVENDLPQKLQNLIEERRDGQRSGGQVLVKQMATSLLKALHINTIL
The assay is described as above.

B1: MOB1B-mcherry (protein, UniProt Q8GYX0 1-215)
chain: MSLFGLGRNQKTFRPKKSAPSGTKGAELRKHIDATLGSGNLREAVKLPPGEDLNEWLAVNTVDFFNQVNLLFGTLTEFCTPENCSTMTAGPKYEYRWADGVQIKKPIEVSAPKYVEYLMDWIETQLDDETIFPQKLGAAFPPNFKEVVKTIFKRLFRVYAHIYHSHFQKIVSLKEEAHLNTCFKHFILFTHEFVLIDKKELAPLQELIESIIAPY
B1: the binding entry in assay [1] and in assay [2] was “binds” each time.

B2: MOB1A-mcherry (protein, UniProt Q9FHI1 1-215)
chain: MSLFGLGRNQKTFRPKKSAPSGSKGAQLRKHIDATLGSGNLREAVRLPPGEDANEWLAVNTVDFFNQVNLLYGTLTEFCTPDNCPTMTAGPKYEYRWADGVQIKKPIEVSAPKYVEYLMDWIETQLDDETLFPQRLGAPFPQNFKDVVKTIFKRLFRVYAHIYHSHFQKIVSLKEEAHLNTCFKHFILFTHEFGLIDKKELAPLQELIESIISPY
With B2, the binding entry in assay [1] and in assay [2] was “binds” each time.
